In patent US20180201687A1:
These are yes or no findings as the source states them, for the method shown. Some results given as binding are weak or reduced against the parent protein; the word gives no strength.

Chains of the proteins cited; added tags and fusions are not shown. Lines headed by an entry give the natural chain unless they say otherwise; changes in a name come on top. A line that says so, or that is headed by a name, gives the form on record, which may keep a tag or linker.
myosin 18Aβ (190 kDa short isoform of myosin 18A) (Q92614, form named): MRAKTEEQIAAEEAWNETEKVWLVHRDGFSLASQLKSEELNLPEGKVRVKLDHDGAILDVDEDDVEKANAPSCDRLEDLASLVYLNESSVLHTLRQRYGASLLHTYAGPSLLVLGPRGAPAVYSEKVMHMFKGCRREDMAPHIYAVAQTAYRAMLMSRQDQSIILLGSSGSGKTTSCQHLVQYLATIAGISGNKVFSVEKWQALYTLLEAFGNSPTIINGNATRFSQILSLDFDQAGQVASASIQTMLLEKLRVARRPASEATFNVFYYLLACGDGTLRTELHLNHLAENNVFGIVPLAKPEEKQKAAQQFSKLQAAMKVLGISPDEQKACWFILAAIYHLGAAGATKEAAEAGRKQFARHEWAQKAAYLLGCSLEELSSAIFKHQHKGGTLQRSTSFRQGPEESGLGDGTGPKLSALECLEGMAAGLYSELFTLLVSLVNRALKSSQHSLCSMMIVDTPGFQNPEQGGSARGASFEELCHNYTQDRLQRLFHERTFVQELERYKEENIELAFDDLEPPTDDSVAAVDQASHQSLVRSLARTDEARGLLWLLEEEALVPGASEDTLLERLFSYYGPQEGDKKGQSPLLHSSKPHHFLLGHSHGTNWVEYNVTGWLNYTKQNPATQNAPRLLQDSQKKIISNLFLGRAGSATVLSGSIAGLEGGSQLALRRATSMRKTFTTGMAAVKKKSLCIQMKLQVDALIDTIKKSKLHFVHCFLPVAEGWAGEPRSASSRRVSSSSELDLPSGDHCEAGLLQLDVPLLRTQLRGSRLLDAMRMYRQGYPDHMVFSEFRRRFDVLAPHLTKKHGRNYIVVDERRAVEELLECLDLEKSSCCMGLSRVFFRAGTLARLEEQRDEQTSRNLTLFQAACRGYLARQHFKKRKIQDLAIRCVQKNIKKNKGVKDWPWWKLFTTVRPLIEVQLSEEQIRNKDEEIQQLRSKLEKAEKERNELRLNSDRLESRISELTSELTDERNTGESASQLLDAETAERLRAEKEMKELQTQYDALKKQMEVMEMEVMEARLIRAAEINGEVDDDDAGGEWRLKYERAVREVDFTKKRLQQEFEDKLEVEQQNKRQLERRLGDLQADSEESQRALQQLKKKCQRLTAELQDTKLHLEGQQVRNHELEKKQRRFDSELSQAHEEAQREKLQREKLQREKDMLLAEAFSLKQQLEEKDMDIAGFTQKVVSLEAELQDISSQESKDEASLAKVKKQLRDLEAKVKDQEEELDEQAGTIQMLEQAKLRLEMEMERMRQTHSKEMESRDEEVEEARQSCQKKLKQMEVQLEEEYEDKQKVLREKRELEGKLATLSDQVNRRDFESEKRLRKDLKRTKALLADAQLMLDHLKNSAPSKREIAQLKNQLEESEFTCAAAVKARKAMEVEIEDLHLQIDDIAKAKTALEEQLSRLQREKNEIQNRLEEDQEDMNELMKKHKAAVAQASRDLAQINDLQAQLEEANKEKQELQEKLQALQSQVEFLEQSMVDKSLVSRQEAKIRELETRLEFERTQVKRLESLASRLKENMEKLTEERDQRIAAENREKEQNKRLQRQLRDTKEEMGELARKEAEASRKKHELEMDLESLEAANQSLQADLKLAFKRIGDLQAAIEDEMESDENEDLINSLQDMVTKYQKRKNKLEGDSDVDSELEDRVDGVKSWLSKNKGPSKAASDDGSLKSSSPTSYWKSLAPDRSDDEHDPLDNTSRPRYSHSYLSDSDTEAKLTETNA

Legend:
[1] = molecular target: myosin 18Aβ (190 kDa short isoform of myosin 18A) (human) (UniProt Q92614); experiment: immunoprecipitation of PBMC lysates, immunoblot with polyclonal anti-myosin 18A
[2] = molecular target: myosin 18Aβ (190 kDa short isoform of myosin 18A) (human) (UniProt Q92614); experiment: immunoprecipitation of human lung lysates, immunoblot with polyclonal anti-myosin 18A
[3] = molecular target: myosin 18Aβ (190 kDa short isoform of myosin 18A) (human) (UniProt Q92614); experiment: immunoprecipitation of YT2C2 cell lysates, immunoblot with polyclonal anti-myosin 18A

Measured: binding

B1: DY12 monoclonal antibody (anti-CD245 mAb) (antibody, V domains shown)
VH: QVQLQQPGAELVRPGASVMLSCKASGYTFTNYWINWVRQRPGQGLEWIGNIYPSDSYTNYNQKFKDKATLTVDNSSSTAYMQFSSPTSEDSAVYFCTRLTTVGAGAMDYWGQGTSVTVSS
VL: DIQMTQSSSYLSVSLGGRVTITCKASDHINNWLAWYQQKPGNAPRLLISGATSLETGVPSRFSGSGSGKDYTLSIFSLQSEDVATYYCQQYWSTPFTFGSGTKLEIK
binds: [1] | [2] | [3]
